Assay results as given in PubChem BioAssay AID2685 (National Center for Advancing Translational Sciences (NCATS), 2010).
The list shows a part of the results. These are further read-outs of the screen, such as a control signal, another cell line or another target. No call is given for them. The list favours compounds with an active or inconclusive main result. Potencies come from curve fits of mixed quality, noted in brackets.

Test: qHTS Assay for Lipid Storage Modulators in Drosophila S3 Cells;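 as to cell number change: cells counted by Cell Tracker Red CMTPX staining in the red channel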
Conditions: BODIPY lipid droplet fluorescence, 18-24 h; for cell number change: measured here: cell count max response, cells fed with added oleic acid
How it was run: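 Drosophila S3 cells loaded with oleic acid (400 uM, as added) and compounds at several concentrations; lipid droplets imaged by 488-nm laser-scanning cytometry, 500–530 nm intensity and object ratio to cell channel. Percent activity normalized to 20 uM Triacsin C.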

[1] = measured here: cell number channel AC50, cells fed with added oleic acid
[2] = measured here: lipid fluorescence (Fed channel) AC50, cells fed with added oleic acid

| Compound | cell number change [%] | AC50 [1] | AC50 [2] |
| --- | --- | --- | --- |
| COc1ccc2cc3c(N)nn(C(=O)C4CCC(C(C)(C)C)CC4)c3nc2c1 (stereo not given) | -82.7 | 18.4 µM [falling, single point] | 18.4 µM [falling, partial curve] |
| Cc1c(C(=O)N(C)C)c2cc(Cl)ccc2n1O | -19.7 | – | 0.0259 µM [falling, full curve, poor fit] |
| COC(=O)c1cccc(-n2nnnc2SCC(=O)Nc2cc(C)on2)c1 | -15.8 | – | – |
| O=C(Nc1cccc(-c2csc(Nc3ccccc3)n2)c1)c1cc([N+](=O)[O-])cc(C(F)(F)F)c1 | -50.6 | 23.1 µM [falling, single point] | 7.31 µM [falling, partial curve] |
| COc1ccccc1OCC(O)Cn1c(Br)nc2c1c(=O)[nH]c(=O)n2C (stereo not given) | -0.353 | – | – |
| CCCCCOc1ccc2oc(=O)c3c(c2c1)CCCN3C(=O)CN1CCCC(C(=O)OCC)C1 (stereo not given) | 63 | 4.11 µM [rising, full curve] | 4.61 µM [falling, partial curve] |
| Cc1ccc(C)c(OCCC(=O)OCC(=O)Nc2ccc(N3CCOCC3)cc2)c1 | 23 | – | – |
| Cc1cc(C)cc(NC(=O)Cn2nnc(C(=O)NCc3ccco3)c2N)c1 | 6.1 | – | 1.84 µM [rising, partial curve, poor fit] |
| O=C1c2ccccc2C(=O)N1OCCOCCOCCBr | – | 0.231 µM [falling, full curve] | – |
| CCOC(=O)N1CCN(C(=O)COC(=O)CSc2ccc([N+](=O)[O-])cc2)CC1 | -20 | – | – |
| Cc1ccc(Nc2nnc(SCn3nnc4ccccc4c3=O)s2)cc1 | – | 1.46 µM [rising, partial curve] | – |
| CCOC(=O)C1=C(C)NC(=O)CC1c1cc2c(cc1Br)OCO2 (stereo not given) | – | 2.31 µM [rising, single point] | 4.11 µM [rising, partial curve] |
| COc1ccc(NC(=O)c2ccccc2NS(=O)(=O)c2ccc(CNC(C)=O)cc2)c(OC)c1 | -10.5 | – | 0.00461 µM [falling, full curve, poor fit] |
| O=C(Nc1ccc(Oc2ccccc2)nc1)C1CCCCN1Cc1cccc(OCCO)c1 (stereo not given) | -20.9 | – | 14.6 µM [falling, partial curve] |
| Clc1ccc(-c2nnc(-c3ccc(Br)cc3)c(N3CCSCC3)n2)cc1 | 26.3 | – | – |
| O=C(Nc1ccc(F)cc1F)NC1CC1 | 2.6 | 0.58 µM [rising, full curve, poor fit] | – |
| Cc1c(C(=O)NCCSCc2c(F)cccc2Cl)cnn1-c1ccc(Cl)cc1 | 7.99 | – | 0.092 µM [rising, full curve, poor fit] |
| Cc1cccc(NC(=O)Nc2cc(C)on2)c1 | -19.8 | – | – |
| COC(=O)c1ccc(C(C(=O)NCc2ccccc2)N(Cc2cccs2)C(=O)c2cnccn2)cc1 (stereo not given) | 61.7 | 1.16 µM [rising, full curve] | 2.31 µM [rising, partial curve] |
| CC(C)(C)OC(=O)N[C@H](Cc1ccccc1)C(=O)N1CCC(C(=O)O)CC1 | 2.16 | – | 0.13 µM [falling, full curve, poor fit] |

| Compound | cell number change [%] | AC50 [1] | AC50 [2] |
| --- | --- | --- | --- |
| Cc1ccccc1OCCn1ccnc1 | 21.5 | – | 6.51 µM [rising, single point] |
| COc1ccc2c(c1)c(C(=O)CN1CCOCC1)c(C)n2C | -19.1 | – | 2.59 µM [rising, partial curve, poor fit] |
| C=CCc1cccc(/C=N/c2ncccc2O)c1O | 9.85 | – | – |
| O=C(NC1CC2CCCC(C1)N2S(=O)(=O)c1ccccc1)c1ccccc1 (stereo not given) | -23.9 | – | – |
| CC1Cc2ccccc2N1S(=O)(=O)c1cnc(Cl)c(Br)c1 (stereo not given) | 7.72 | – | 29.1 µM [rising, single point] |
| CC(/C=C/c1ccc(OCc2ccccc2)cc1)=N\O | 66.7 | 29.1 µM [rising, single point] | 7.31 µM [rising, partial curve, poor fit] |
| CCN(Cc1ccccc1)C(=O)Cn1c(=O)oc2ccccc21 | 7.58 | 6.51 µM [falling, single point] | 0.00517 µM [falling, full curve, poor fit] |
| COc1ccccc1N1CCN(C(c2cc3ccc(C)cc3[nH]c2=O)c2nnnn2C2CCCC2)CC1 (stereo not given) | 58.5 | 29.1 µM [rising, single point] | – |
| O=S(=O)(c1ccccc1)N1N=C(c2cccs2)CC1c1cccc(O)c1 (stereo not given) | -30.6 | 13 µM [falling, partial curve, poor fit] | – |
| COCCn1c(C)cc(C(=O)COC(=O)/C=C/c2c(C)nn(C3CCS(=O)(=O)C3)c2Cl)c1C (stereo not given) | -50 | 29.1 µM [falling, single point] | 29.1 µM [falling, single point] |
| CC(C)C(=O)Nc1nc2c(c(=O)[nH]1)CCCC2 | -30 | – | 29.1 µM [falling, single point] |
| CCOC(=O)c1ccc(NC(=S)N(CCCN2CCCC2)Cc2cccs2)cc1 | – | 3.66 µM [rising, partial curve] | – |
| Cc1cc(NC(=O)C(C)SCC(=O)N(C)Cc2ccccc2F)no1 (stereo not given) | -8.03 | – | 14.6 µM [rising, partial curve, poor fit] |
| CN=c1scc(C)n1/N=C/c1cc(Br)c(O)c(OC)c1 | 22 | – | 29.1 µM [rising, single point] |
| CCN1CCN(S(=O)(=O)c2ccc(Oc3ccccc3OC)cc2)CC1 | – | 2.06 µM [falling, partial curve, poor fit] | 0.00517 µM [falling, full curve, poor fit] |
| CCCS(=O)(=O)N1CCCC(C(=O)NCCCN(C)c2ccccc2)C1 (stereo not given) | -16.6 | – | – |
| COc1ccccc1NC(=O)CN1CCC(n2c(C)nc3cc(F)ccc32)CC1 | -8.53 | – | – |
| COc1ccc(-n2cc(CNCCc3cnc[nH]3)c(-c3cccc(F)c3)n2)cc1 | -39 | 29.1 µM [falling, single point] | – |
| CC(=O)c1c(C)[n+]([O-])c2ccc3c(non3O)c12 | 30.2 | – | 6.51 µM [rising, partial curve, poor fit] |
| CCOc1ccc(Cn2ccnc2)cc1[N+](=O)[O-] | 37.4 | 0.731 µM [rising, full curve] | 1.64 µM [rising, partial curve] |

In the list so far, 2 have a tert-butyl group:

| Compound | cell number change [%] | AC50 [1] | AC50 [2] |
| --- | --- | --- | --- |
| COc1ccc2cc3c(N)nn(C(=O)C4CCC(C(C)(C)C)CC4)c3nc2c1 (stereo not given) | -82.7 | 18.4 µM [falling, single point] | 18.4 µM [falling, partial curve] |
| CC(C)(C)OC(=O)N[C@H](Cc1ccccc1)C(=O)N1CCC(C(=O)O)CC1 | 2.16 | – | 0.13 µM [falling, full curve, poor fit] |

Carrying on.

| Compound | cell number change [%] | AC50 [1] | AC50 [2] |
| --- | --- | --- | --- |
| CCCCCCCOC(=O)C[N+](C)(C)CCOC1CC2CCC1(C)C2(C)C (stereo not given) | -64.5 | 18.4 µM [falling, partial curve] | 13 µM [falling, partial curve] |
| CCOc1ccc2c(c1)s/c(=N\S(=O)(=O)c1ccc(OC)cc1)n2C(F)F | 39.6 | 0.366 µM [rising, partial curve, poor fit] | 3.26 µM [rising, full curve] |
| Fc1cccc(Cl)c1Cn1ncc2ccccc21 | 4.93 | – | 2.31 µM [rising, partial curve] |
| CSc1ccc(S(=O)(=O)NCC(=O)OCC(=O)N(C)Cc2ccccc2)cc1[N+](=O)[O-] | -44.7 | 29.1 µM [falling, single point] | – |
| O=C(O)CN(c1ccccc1F)S(=O)(=O)c1ccccc1 | -18.5 | – | 0.291 µM [falling, full curve, poor fit] |
| CCOC(=O)c1c(-c2ccccc2)oc2ccc(OC)cc12 | 38.9 | 29.1 µM [rising, single point] | 23.1 µM [rising, single point] |
| Cc1cccc(C)c1NC(=O)c1sc(Cl)nc1C | 13.4 | – | 3.26 µM [rising, full curve, poor fit] |
| CCc1nnc(NC(=O)c2nc(S(=O)(=O)Cc3ccccc3)ncc2Cl)s1 | -5.31 | 4.61 µM [falling, single point] | 4.61 µM [falling, full curve] |
| CCN1C(=O)/C(=C\c2ccc(-c3ccc([N+](=O)[O-])cc3OC)o2)SC1=Nc1cccc(C(=O)O)c1 | -9.04 | – | – |
| CCOC(=O)c1oc2ccccc2c1COC(=O)CNC(=O)c1ccco1 | -0.901 | – | 23.1 µM [rising, single point] |
| COc1cccc(-c2cnc(OC(C)(C)C)nc2OC(C)(C)C)c1 | 31.2 | 29.1 µM [rising, single point] | 25.9 µM [falling, single point] |
| CN1c2ccsc2C(O)=C(C(=S)Nc2ccc(F)c(Cl)c2)S1(=O)=O | 17.2 | – | 6.51 µM [falling, single point] |
| COCc1cc(=O)[nH]c(Nc2nc3ccc(C)cc3o2)n1 | – | 6.51 µM [rising, single point] | – |
| COc1ccc(NS(=O)(=O)c2cc(NC(=O)c3ccc(=O)[nH]n3)ccc2C)cc1 | 27.1 | – | 0.00461 µM [falling, full curve, poor fit] |
| O=C(O)C1CCCCC1C(=O)Nc1ccccn1 (stereo not given) | 0.0445 | – | 5.8 µM [falling, full curve] |
| O=C(Nc1ccccc1O)c1ccc2c(c1)C(=O)N(c1ccccc1)C2=O | 22.5 | – | 5.17 µM [falling, single point] |
| C=CCSc1nc2sc3c(c2c(=O)[nH]1)CCC3 | -40.3 | 29.1 µM [falling, single point] | – |
| CC(C)C1C(c2ccccc2)NC(c2ccccc2)CC1(O)c1ccc(F)cc1 (stereo not given) | -66.7 | 23.1 µM [falling, partial curve, poor fit] | 11.6 µM [falling, partial curve] |
